Test results published in the supplement of paper PMC12595434, “Development of retinoid nuclear receptor pathway antagonists through targeting aldehyde dehydrogenase 1A3” (iScience, 2025).
The other results are listed elsewhere or left out. This is a noisy data set.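 Many melting curves are irregular; where none melted, Tm was taken as 64 °C.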

Amino acid sequences for entries named in this document (tags omitted). A change or cut given only in a name is not applied to a line headed by its entry.
UniProt P17844: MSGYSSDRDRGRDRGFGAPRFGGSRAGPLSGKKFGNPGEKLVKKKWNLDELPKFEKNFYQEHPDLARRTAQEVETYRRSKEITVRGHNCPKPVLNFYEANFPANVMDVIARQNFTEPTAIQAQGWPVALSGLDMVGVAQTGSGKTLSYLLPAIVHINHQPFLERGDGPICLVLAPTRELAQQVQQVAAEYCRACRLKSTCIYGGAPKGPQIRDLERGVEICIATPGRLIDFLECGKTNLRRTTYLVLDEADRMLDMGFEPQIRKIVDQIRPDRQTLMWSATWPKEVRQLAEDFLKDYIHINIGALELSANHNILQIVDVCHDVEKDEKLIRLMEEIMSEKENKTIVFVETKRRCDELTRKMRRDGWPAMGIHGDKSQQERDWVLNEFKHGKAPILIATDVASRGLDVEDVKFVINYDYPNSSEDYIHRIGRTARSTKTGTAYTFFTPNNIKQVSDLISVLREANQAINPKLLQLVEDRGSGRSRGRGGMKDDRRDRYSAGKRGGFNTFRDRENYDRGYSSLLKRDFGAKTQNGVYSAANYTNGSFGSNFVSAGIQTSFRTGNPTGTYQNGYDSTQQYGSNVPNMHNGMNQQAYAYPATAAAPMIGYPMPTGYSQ
UniProt P08754, whole entry: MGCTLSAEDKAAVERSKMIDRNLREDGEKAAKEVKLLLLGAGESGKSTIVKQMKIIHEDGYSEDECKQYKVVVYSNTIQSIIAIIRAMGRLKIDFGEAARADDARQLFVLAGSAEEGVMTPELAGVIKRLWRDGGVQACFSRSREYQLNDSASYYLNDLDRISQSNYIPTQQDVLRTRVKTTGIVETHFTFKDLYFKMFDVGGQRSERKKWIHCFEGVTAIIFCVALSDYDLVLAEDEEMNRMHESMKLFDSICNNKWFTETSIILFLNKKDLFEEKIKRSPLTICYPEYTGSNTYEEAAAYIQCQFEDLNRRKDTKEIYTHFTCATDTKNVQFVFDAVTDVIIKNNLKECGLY
UniProt P12081: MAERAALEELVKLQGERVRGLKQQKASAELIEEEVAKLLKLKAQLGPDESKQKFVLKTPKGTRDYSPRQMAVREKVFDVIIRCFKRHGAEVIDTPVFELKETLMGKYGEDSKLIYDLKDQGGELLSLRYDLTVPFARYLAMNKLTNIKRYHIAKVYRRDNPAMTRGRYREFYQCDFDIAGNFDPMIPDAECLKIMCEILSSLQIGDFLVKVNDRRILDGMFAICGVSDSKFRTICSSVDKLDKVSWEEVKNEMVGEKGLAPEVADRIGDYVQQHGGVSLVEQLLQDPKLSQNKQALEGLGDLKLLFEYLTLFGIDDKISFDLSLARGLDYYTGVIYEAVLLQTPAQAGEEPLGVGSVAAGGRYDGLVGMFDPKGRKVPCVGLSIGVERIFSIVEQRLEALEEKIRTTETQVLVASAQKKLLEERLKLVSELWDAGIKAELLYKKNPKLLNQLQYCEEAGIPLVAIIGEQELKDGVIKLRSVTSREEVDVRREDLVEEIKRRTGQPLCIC
UniProt P11388: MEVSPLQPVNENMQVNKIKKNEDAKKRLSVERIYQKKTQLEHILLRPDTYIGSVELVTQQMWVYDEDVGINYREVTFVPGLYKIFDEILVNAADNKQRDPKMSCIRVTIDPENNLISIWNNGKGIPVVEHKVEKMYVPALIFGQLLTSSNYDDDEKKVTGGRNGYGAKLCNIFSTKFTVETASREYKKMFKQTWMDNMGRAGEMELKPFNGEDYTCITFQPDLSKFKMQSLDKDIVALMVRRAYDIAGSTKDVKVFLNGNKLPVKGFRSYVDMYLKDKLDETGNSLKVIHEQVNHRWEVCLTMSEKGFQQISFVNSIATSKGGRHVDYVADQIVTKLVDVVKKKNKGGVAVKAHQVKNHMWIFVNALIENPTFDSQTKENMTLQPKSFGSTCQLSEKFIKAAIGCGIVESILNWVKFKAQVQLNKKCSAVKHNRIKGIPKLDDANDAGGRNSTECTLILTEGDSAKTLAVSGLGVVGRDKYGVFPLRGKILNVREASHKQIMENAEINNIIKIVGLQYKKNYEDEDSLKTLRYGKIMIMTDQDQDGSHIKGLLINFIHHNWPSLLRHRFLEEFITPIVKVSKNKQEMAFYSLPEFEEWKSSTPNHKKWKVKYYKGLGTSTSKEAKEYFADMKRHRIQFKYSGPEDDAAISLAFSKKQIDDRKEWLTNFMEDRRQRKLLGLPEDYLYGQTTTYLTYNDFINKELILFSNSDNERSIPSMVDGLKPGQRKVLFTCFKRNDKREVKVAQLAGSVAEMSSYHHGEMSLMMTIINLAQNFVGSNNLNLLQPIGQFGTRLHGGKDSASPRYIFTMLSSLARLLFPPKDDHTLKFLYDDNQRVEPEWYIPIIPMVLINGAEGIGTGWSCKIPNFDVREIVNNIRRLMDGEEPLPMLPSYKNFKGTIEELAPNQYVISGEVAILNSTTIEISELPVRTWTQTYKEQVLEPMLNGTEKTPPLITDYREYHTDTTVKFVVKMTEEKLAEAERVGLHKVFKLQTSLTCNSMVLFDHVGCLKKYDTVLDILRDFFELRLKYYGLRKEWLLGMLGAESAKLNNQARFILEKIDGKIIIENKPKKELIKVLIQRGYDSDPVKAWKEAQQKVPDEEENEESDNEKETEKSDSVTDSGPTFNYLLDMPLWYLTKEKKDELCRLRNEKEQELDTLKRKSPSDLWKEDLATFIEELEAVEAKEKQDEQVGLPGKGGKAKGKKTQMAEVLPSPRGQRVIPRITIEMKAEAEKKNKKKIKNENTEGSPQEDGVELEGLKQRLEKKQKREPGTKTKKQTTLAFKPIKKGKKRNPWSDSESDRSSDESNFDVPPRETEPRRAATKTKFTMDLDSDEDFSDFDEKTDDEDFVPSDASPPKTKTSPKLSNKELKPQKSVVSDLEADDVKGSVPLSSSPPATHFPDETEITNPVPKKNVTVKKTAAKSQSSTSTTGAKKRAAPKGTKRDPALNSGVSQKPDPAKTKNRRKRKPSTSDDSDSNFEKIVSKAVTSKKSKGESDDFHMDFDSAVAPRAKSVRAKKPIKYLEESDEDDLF
UniProt P09486: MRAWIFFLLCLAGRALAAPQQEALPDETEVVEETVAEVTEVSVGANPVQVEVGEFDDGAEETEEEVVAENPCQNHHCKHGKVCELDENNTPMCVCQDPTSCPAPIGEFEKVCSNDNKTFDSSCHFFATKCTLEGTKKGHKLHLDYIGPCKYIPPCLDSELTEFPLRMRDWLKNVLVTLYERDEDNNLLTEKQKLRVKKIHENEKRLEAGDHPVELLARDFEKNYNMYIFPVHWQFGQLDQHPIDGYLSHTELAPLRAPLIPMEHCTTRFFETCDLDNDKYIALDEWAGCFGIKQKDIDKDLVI
UniProt P11586, whole entry: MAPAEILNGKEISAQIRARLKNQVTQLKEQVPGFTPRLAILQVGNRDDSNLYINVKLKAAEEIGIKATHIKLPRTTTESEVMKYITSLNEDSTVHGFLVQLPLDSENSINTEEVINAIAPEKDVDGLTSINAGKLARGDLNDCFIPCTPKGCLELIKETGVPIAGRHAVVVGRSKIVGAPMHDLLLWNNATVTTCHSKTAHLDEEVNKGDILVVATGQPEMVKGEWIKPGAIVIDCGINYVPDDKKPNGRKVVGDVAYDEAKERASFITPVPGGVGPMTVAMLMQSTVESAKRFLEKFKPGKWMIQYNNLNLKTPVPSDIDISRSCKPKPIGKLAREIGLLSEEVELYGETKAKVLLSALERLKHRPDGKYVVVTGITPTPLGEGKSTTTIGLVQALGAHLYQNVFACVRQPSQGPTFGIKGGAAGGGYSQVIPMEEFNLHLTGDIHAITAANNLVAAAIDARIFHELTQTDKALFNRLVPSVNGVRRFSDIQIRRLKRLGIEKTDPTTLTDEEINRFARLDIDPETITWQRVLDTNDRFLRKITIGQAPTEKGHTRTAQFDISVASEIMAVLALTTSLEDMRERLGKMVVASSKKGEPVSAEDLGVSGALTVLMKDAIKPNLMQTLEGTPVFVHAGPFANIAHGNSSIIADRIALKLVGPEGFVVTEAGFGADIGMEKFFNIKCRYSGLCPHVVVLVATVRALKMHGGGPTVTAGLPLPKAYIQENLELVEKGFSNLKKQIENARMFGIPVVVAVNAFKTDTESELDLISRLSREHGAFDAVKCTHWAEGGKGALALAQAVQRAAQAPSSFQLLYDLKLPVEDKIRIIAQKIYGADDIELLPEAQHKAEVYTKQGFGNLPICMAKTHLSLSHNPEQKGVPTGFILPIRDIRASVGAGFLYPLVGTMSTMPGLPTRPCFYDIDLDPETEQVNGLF
UniProt P10586, whole entry: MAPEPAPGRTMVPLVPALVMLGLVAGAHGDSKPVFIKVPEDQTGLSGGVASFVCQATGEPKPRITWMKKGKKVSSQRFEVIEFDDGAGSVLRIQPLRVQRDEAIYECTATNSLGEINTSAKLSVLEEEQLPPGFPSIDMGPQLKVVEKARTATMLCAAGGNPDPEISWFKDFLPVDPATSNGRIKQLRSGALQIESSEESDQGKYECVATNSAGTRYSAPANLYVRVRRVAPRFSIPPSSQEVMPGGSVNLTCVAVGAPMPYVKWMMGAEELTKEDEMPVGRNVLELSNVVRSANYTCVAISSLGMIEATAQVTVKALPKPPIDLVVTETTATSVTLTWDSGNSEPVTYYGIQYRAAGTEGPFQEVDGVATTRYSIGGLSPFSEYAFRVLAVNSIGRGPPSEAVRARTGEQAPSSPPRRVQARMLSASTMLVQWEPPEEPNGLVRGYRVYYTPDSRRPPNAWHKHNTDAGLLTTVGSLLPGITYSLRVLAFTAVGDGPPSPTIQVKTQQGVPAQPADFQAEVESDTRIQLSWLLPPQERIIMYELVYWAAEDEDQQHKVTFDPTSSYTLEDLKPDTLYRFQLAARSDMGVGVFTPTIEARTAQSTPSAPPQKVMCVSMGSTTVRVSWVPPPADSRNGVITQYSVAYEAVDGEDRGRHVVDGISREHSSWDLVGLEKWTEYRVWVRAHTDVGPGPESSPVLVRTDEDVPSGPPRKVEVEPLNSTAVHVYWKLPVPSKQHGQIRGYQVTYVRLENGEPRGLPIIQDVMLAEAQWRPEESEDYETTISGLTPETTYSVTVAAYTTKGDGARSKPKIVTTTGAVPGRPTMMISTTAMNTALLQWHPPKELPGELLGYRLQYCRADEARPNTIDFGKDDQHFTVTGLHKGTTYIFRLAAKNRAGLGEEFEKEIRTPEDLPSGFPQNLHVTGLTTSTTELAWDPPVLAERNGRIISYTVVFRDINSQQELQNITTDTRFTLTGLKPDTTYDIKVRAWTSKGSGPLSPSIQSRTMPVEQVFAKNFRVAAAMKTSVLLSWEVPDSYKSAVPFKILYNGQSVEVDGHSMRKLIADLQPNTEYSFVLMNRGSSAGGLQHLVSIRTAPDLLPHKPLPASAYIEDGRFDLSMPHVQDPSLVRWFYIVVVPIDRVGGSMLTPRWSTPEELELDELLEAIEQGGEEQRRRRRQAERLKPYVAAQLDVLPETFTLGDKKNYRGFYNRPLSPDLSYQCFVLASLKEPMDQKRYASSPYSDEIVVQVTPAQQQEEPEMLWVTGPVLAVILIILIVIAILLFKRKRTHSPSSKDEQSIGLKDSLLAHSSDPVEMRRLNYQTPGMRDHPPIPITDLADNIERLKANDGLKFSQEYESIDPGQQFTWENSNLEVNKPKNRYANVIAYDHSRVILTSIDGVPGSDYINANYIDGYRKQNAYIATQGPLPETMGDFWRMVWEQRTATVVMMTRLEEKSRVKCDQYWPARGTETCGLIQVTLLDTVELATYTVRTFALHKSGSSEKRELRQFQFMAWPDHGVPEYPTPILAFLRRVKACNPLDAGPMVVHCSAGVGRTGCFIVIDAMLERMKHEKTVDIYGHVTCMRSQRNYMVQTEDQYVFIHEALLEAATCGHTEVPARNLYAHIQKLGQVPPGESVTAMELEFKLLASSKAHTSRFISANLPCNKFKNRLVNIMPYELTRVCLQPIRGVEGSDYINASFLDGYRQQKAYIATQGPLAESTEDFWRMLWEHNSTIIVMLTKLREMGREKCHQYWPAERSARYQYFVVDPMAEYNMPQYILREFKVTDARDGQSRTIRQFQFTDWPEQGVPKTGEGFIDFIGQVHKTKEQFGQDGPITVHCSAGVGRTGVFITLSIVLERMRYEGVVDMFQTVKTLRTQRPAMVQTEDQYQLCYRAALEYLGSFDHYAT
UniProt P08621, whole entry: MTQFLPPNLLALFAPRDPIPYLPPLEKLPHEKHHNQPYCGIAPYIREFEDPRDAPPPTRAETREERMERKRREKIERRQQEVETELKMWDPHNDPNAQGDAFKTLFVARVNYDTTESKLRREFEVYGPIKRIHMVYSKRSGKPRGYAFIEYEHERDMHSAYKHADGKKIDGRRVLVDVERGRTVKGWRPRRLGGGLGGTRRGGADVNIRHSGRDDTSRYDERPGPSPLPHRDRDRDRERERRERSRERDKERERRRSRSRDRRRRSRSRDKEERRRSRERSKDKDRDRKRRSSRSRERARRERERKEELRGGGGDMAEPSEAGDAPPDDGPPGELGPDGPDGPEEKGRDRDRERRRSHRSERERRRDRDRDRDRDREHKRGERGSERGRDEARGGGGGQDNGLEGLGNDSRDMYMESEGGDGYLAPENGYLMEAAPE

Compound: CCc1cnccc1C(=O)Nc1cc2c(cc1F)NC(=O)CC2
Experiment: melting temperature shift (DMSO Tm minus MBE1-treated Tm) in cellular thermal proteome profiling; higher = less thermal stabilization by MBE1 (negative = stabilized by MBE1)
Details: A375

Target	melting temperature shift (MBE1 concentration: 100 nM)	melting temperature shift (MBE1 concentration: 1 uM)
DDX5 (UniProt P17844)	-0.494 °C	0.0847 °C
GNAI3 (UniProt P08754)	-0.651 °C	-0.53 °C
HARS (UniProt P12081)	-0.899 °C	-0.201 °C
UniProt P13612	-3.2 °C	1.34 °C
TOP2A (UniProt P11388)	-0.602 °C	-0.48 °C
ANXA4 (UniProt P09525)	0.525 °C	0.147 °C
PRKAR2A (UniProt P13861)	-0.512 °C	0.104 °C
LIG1 (UniProt P18858)	-0.325 °C	-0.583 °C
CAPN1 (UniProt P07384)	-1.51 °C	-0.36 °C
RPSA (UniProt P08865)	-0.598 °C	1.62 °C
PCNA (UniProt P12004)	-1.09 °C	-0.235 °C
UniProt P09486	-0.421 °C	-1.03 °C
MTHFD1 (UniProt P11586)	-0.582 °C	0.348 °C
PTPRF (UniProt P10586)	1.25 °C	0.55 °C
UniProt P20337	-1.74 °C	-1.02 °C
HSPA5 (UniProt P11021)	-1.89 °C	-0.421 °C
SNRNP70 (UniProt P08621)	0.407 °C	0.128 °C
NCK1 (UniProt P16333)	-0.643 °C	-0.667 °C
COL4A2 (UniProt P08572)	-0.516 °C	0.391 °C
UniProt P15309	0.629 °C	-2.13 °C
UniProt P0DN76	-0.39 °C	-0.118 °C

Complete entries as entered above. Values in the order: melting temperature shift (MBE1 concentration: 100 nM)	melting temperature shift (MBE1 concentration: 1 uM)
HARS (UniProt P12081) reads -0.899 °C	-0.201 °C
GNAI3 (UniProt P08754) reads -0.651 °C	-0.53 °C
